Laboratory results: PMC7862611, “Ribosome-bound Get4/5 facilitates the capture of tail-anchored proteins by Sgt2 in yeast” (Nature Communications, 2021)

Chains of the proteins cited; added tags and fusions are not shown.
UniProt P0CX41: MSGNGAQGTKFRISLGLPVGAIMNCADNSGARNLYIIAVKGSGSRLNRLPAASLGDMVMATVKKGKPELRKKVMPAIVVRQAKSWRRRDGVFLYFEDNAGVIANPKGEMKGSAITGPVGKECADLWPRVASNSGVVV
UniProt P53221: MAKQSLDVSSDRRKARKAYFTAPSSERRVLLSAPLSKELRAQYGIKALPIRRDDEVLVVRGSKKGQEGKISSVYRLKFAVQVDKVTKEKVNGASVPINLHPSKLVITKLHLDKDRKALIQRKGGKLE
UniProt P49166: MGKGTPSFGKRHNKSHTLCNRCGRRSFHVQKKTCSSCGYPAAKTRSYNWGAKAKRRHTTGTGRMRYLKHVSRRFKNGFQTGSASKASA

T1: His6Get5 (yeast (S. cerevisiae)) (UniProt Q12285)
T1 sequence: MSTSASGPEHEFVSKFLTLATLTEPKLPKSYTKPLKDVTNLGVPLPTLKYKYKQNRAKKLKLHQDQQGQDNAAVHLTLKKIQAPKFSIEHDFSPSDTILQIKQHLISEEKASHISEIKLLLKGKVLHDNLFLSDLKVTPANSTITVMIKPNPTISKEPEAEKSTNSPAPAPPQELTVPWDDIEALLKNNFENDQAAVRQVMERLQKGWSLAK

B1: Rpl20a (protein, UniProt P0CX23 1-172)
chain: MAHFKEYQVIGRRLPTESVPEPKLFRMRIFASNEVIAKSRYWYFLQKLHKVKKASGEIVSINQINEAHPTKVKNFGVWVRYDSRSGTHNMYKEIRDVSRVAAVETLYQDMAARHRARFRSIHILKVAEIEKTADVKRQYVKQFLTKDLKFPLPHRVQKSTKTFSYKRPSTFY
B2: Rps19a (protein, UniProt P07280 1-144)
chain: MPGVSVRDVAAQDFINAYASFLQRQGKLEVPGYVDIVKTSSGNEMPPQDAEGWFYKRAASVARHIYMRKQVGVGKLNKLYGGAKSRGVRPYKHIDASGSINRKVLQALEKIGIVEISPKGGRRISENGQRDLDRIAAQTLEEDE
B3: Sgt2 (protein, UniProt Q12118 1-346)
chain: MSASKEEIAALIVNYFSSIVEKKEISEDGADSLNVAMDCISEAFGFEREAVSGILGKSEFKGQHLADILNSASRVPESNKKDDAENVEINIPEDDAETKAKAEDLKMQGNKAMANKDYELAINKYTEAIKVLPTNAIYYANRAAAHSSLKEYDQAVKDAESAISIDPSYFRGYSRLGFAKYAQGKPEEALEAYKKVLDIEGDNATEAMKRDYESAKKKVEQSLNLEKTVPEQSRDADVDASQGASAGGLPDLGSLLGGGLGGLMNNPQLMQAAQKMMSNPGAMQNIQKMMQDPSIRQMAEGFASGGGTPNLSDLMNNPALRNMAGNLFGGAGAQSTDETPDNENKQ

Target: T1, His6Get5 (yeast (S. cerevisiae))
Experiment: cross-linking + affinity purification with mass spectrometry; as a6 (BS3, denaturing Ni-NTA of His6Get5), gel slices, trypsin, LC-MS-MS; compared with untagged Get5

Molecule | binding
Rpl23a (from UniProt P0CX41 1-137) | binds
Rpl26 (from UniProt P53221 1-127) | binds
Rpl37a (from UniProt P49166 1-88) | binds
Rps29a/b (S. cerevisiae (endogenous in yeast)) | binds
B1 | binds
B2 | binds
B3 | binds

These are yes or no findings as the source states them, for the method shown. In cells and extracts the contact can be indirect. These calls come from enrichment with a bait or labelling near it, and not all partners need be listed. Tags and fused reporters may be left off the sequences shown.
